Nine molecules from publication PMC10663520, “Qa-SNARE syntaxin 18 mediates lipid droplet fusion with SNAP23 and SEC22B” (Cell Discovery, 2023) can be followed below.

The chains behind the UniProt entries cited, without tags or fusion partners. Where a name states a change or a piece, a line headed by the entry shows the natural chain unless it says otherwise. Residues count along the entry.
UniProt O75396: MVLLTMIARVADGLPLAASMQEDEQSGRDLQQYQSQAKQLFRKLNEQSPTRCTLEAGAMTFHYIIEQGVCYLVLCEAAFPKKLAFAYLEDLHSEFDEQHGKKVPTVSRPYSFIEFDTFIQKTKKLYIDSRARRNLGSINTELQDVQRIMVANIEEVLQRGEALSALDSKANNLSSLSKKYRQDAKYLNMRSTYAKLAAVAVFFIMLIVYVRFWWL
His-SEC22B-SNARE (134-194) of the co-expressed mini-SNARE complex: residues 134-194 of O75396

Results are given in words; binding and its absence hold for the method and conditions named. For some assays here: In cells and extracts the contact can be indirect. Some entries that bind do so weakly or less than the wild type. For some assays here: Tags and fused reporters may be left off the sequences shown.

Assay [1] addresses T1, endogenous STX18 (HepG2) (human (endogenous in HepG2)) (UniProt Q9P2W9).
T1 sequence: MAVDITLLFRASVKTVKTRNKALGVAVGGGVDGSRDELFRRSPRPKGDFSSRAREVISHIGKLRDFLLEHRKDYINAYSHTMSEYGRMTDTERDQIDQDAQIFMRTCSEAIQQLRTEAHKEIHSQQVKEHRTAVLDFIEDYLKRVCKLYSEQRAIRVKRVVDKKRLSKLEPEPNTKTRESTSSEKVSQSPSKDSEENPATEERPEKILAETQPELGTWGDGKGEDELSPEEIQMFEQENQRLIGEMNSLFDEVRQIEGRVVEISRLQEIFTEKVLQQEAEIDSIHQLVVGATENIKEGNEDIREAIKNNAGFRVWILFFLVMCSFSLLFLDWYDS
In words: co-IP; endogenous IP in HepG2 cells without overexpression; western blot. (Immunoblotting shows a protein as a band on a membrane.)

Assay [2] concerns the target T2, Flag-STX18 WT (syntaxin 18) (UniProt Q9P2W9).
T2 sequence: T1 sequence
In words: co-IP; HEK293T co-transfected 36 h with a Flag-STX18 construct and GFP-SEC22B or GFP-SNAP23; lysis in TAP buffer (20 mM Tris-HCl pH 7.5, 150 mM NaCl, 0.5% NP-40); Flag IP overnight; western blot.

For the next assay, the target named is T3, Flag-STX18 (Huh7) (UniProt Q9P2W9).
T3 sequence: T1 sequence
Put plainly: co-IP; Huh7 transfected with Flag-STX18 36 h, with or without 0.2 mM OA-BSA for 2 h, 6 h, 12 h; Flag IP; western blot.

Assay [3] has as its target His-SEC22B-SNARE (134-194) of the co-expressed mini-SNARE complex (UniProt O75396). Put plainly: SEC; four SNARE domains co-expressed in E. coli, co-purified on Ni-NTA by the His tags of SEC22B-SNARE and SNAP23-SNARE1, then Superdex 75 Increase 10/300 GL in 50 mM HEPES pH 7.4, 150 mM NaCl, 0.5 mM TCEP; single peak; SDS-PAGE and MS of the bands. For orientation: In gel filtration, larger molecules generally elute earlier.

Assay [4] addresses T4, His-SNAP23-SNARE1 (14-76) of the co-expressed mini-SNARE complex (UniProt O00161).
T4 sequence: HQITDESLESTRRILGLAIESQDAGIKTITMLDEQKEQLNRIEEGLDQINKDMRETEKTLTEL
Described as above.

As for “endogenous SEC22B (HepG2) (from UniProt O75396 1-215)”, the binding entry in assay [1] is given as “binds”.

Turning to GFP-SEC22B (from UniProt O75396 1-215), the binding entry in assay [2] was “binds”. As for “SEC22B (Huh7) (from UniProt O75396 1-215)”, the binding entry in the assay with Flag-STX18 (Huh7) is reported as “binds”.

B1: endogenous SNAP23 (HepG2) (protein, UniProt O00161 1-211)
chain: MDNLSSEEIQQRAHQITDESLESTRRILGLAIESQDAGIKTITMLDEQKEQLNRIEEGLDQINKDMRETEKTLTELNKCCGLCVCPCNRTKNFESGKAYKTTWGDGGENSPCNVVSKQPGPVTNGQLQQPTTGAASGGYIKRITNDAREDEMEENLTQVGSILGNLKDMALNIGNEIDAQNPQIKRITDKADTNRDRIDIANARAKKLIDS
For the molecule B1, the binding entry in assay [1] is reported as “binds”.

B2: GFP-SNAP23 (protein, UniProt O00161 1-211)
chain: B1 chain
With B2, in assay [2], the binding entry is “binds”.

B3: SNAP23 (Huh7) (protein, UniProt O00161 1-211)
chain: B1 chain
B3: the binding entry with Flag-STX18 (Huh7) is “binds”.

B4: STX18-SNARE (243-305), individually purified (domain or fragment, UniProt Q9P2W9 243-305, looked up)
chain: IGEMNSLFDEVRQIEGRVVEISRLQEIFTEKVLQQEAEIDSIHQLVVGATENIKEGNEDIREA
notes: syntaxin 18 (STX18), SNARE domain, residues 243-305, in pGEX-4T-1 with GST-TEV-FLAG at the N-terminus; The TEV site lies between GST and FLAG, so the FLAG tag should remain after cleavage (surmised); source: E. coli BL21 (DE3), purified (Glutathione Sepharose 4B, TEV on beads, Superdex 75); not shown: GST, N-terminal, cleaved
For B4, the binding result in assay [3] and in assay [4] was “binds” in each case.

B5: His-SNAP23-SNARE1 (14-76) of the co-expressed mini-SNARE complex (domain or fragment, UniProt O00161 14-76)
chain: T4 sequence
For B5, in assay [3], the binding result is “binds”.

B6: SNAP23-SNARE2 (146-208) of the co-expressed mini-SNARE complex (domain or fragment, UniProt O00161 146-208)
chain: DAREDEMEENLTQVGSILGNLKDMALNIGNEIDAQNPQIKRITDKADTNRDRIDIANARAKKL
Consider B6, for which the binding result in assay [3] and in assay [4] was “binds” in each case.
